# Assay results published in patent publication US9782387B2, “Compositions and methods for treating hematological malignancies” (Tel HaShomer Medical Research Infrastructure and Services …, priority 2013, dated 2017).
# For some assays here: For at least one compound, name, drawing or mass did not settle the structure. Some results were stated once for a whole list of compounds, not compound by compound.
# Assays:
# [1] = test system: RPMIS and MM.1S cells; experiment: Combination XTT assay, Chou-Talalay; assay type: cell-based, human; conditions: combined with STK405759; CI <1 synergism, >1 antagonism
# [2] = test system: human multiple myeloma (MM) cell lines; experiment: Cell viability XTT assay, MM cell lines; assay type: cell-based; conditions: concentration- and time-dependent; incl. resistant RPMI-MR20 and RPMI-LR5
# Protocol: The following panel of human multiple myeloma (MM) cell lines was used: RPMI-S (ATCC® CCL-155), RPMI-LR5, RPMI-MR20, MM.1S (ATCC® CRL-2974). OPM1, OPM-2, U266 ATCC® TIB-196 and CAG. The human immortalized bone marrow stromal cell (BMSC) line HS-5 was obtained from ATCC® CRL-11882. MM cell lines were grown in RPMI and HS-5 in DMEM, supplemented with 10% fetal calf serum, 2 mM L-glutamine, 100 units/mL penicillin and 100 μg/mL streptomycin (Biological Industries, Beit Haemek, Israel), and incubated in a humidified atmosphere of 5% CO2 and 95% air at 37° C.
# MM cell lines were plated at a density of 2×10^4 cells per well in 96-wells and treated with different concentrations of STK405759. For patient samples, bone marrow aspirates from MM patients were collected, mononuclear cells were separated by Ficoll density gradient centrifugation and myeloma cells selected using CD138 microbeads (Miltenyi Biotec). Purified CD138^+ cells from patients were plated at a density of 2×10^4 cells per well and treated for 48 h with different concentrations of STK405759. Peripheral blood samples were processed by Ficoll density gradient centrifugation to isolate peripheral blood mononuclear cells (PBMCs). […] Cell viability was measured using XTT cell proliferation Kit (Biological Industries) according to manufacture instructions. […]
# [3] = test system: RPMIS cells; experiment: CFSE/PI FACS viability in co-culture, MM cells; assay type: cell-based, human; conditions: cultured alone and in the presence of stromal cells, 48 h, concentration-dependent
# [4] = test system: RPMIS cells; experiment: Survival in presence of exogenous IL-6 or IGF-1; assay type: cell-based, human; conditions: IL-6 (5 or 10 ng/ml) or IGF-1 (10 or 30 ng/ml), 48 h
# [5] = test system: RPMI-S cells; experiment: Apoptosis analysis by FACS (Annexin V/PI); assay type: cell-based, human; conditions: time- and concentration-dependent
# [6] = test system: RPMIS cells; experiment: Immunoblotting analysis, RPMIS; assay type: cell-based, human
# [7] = test system: CREB in U266, MM.1S and CAG MM cells; experiment: Immunoblotting analysis of CREB, MM cell lines; assay type: cell-based, human; conditions: each MM cell line tested, dose and time dependent
# [8] = test system: RPMIS cells; experiment: Cell-cycle analysis (PI DNA staining); assay type: cell-based, human; conditions: 70 nM
# [9] = test system: RPMIS cells; experiment: CFSE proliferation assay; assay type: cell-based, human; conditions: 48 h, concentration dependent
# [10] = test system: RPMIS MM cells; experiment: Xenograft murine model; assay type: in vivo, SCID mice; conditions: 0.5 mg/kg i.p.
# Protocol: RPMIS cells (7×10^6 mouse in 100 μl of PBS) were injected subcutaneously in SCID mice. Mice (n=10 per group) received STK405759 (0.5 mg/kg in 0.1 ml PBS) or control vehicle (0.1 ml PBS), by intraperitoneal (i.p.) administration once a day for 5 days. FIG. 6A—Tumor diameters were measured every 2-3 days with caliper, and tumor volumes were calculated using the formula of the volume of an ellipse: ½ (length×width^2). […] FIG. 6B—Kaplan-Meier analysis of overall survival confirmed that STK405759 increased survival compared with control mice. […] FIG. 6D—Induction of apoptosis and cell death in tumors excised from vehicle or STK405759 (0.5 mg/kg) treated animals are shown by TUNEL assay. Photomicrographs show apoptotic cells (brown) using light microscopy (×20 and ×40 magnification).
# Male SCID mice (6-8 week old) were maintained in accordance with Institutional Animal Care Use Committee guidelines. Mice were housed in the Animal Research Facility of Chaim Sheba Medical Center, Israel, and experiments were performed in accordance to approved protocols. During the experiment, the mice were gamma-irradiated (150 rads) using Cs137 γ-irradiator source and 24 h post-irradiation injected subcutaneously with 7×10^6 RPMIS MM cells suspended in PBS. Two weeks later, when tumors reached 40-70 mm^3, mice were randomly divided into two groups (10 mice/group), and the following treatment protocol was implemented: Group 1: control (0.05 ml DMSO) administered intraperitoneally (i.p.) for 5 days a week throughout the duration of experiment.
# Group 2: STK405759 (0.5 mg/kg in 0.05 ml DMSO) administered i.p. for 5 days a week throughout the duration of experiment.
# Mice were monitored every 2-3 d for changes in body weight and tumor burden. Tumor volumes were measured by a caliper every alternate day and calculated using the following formula: length×width^2×0.5. […] Following sacrifice, tumors were immediately collected and evaluated for induction of apoptosis and cell death by TdT-mediated dUTP nick end labeling (TUNEL) assay.
smiles,measurement,setting,value
"C[C@@H]1C[C@H]2[C@@H]3CCC4=CC(=O)C=C[C@]4(C)[C@@]3(F)[C@@H](O)C[C@]2(C)[C@@]1(O)C(=O)CO [DEX, dexamethasone]",combination index CI,[1],< 1
"COc1cccc2c1C(=O)c1c(O)c3c(c(O)c1C2=O)C[C@@](O)(C(=O)CO)C[C@@H]3O[C@H]1C[C@H](N)[C@H](O)[C@H](C)O1 [DOXO, doxorubicin]",combination index CI,[1],> 1
"CC(C)C[C@H](NC(=O)[C@H](Cc1ccccc1)NC(=O)c1cnccn1)B(O)O [BTZ, bortezomib]",combination index CI,[1],< 1
CCCCCOC(=O)c1[nH]c2c(c1C)C(=O)CC(c1ccco1)C2 (centres unmarked) [STK405759],survival of human MM cells,[2],significantly decreased survival
same,viability of RPMIS cells (CFSE+/PI+),[3],decreased
same,shift in IC50 by cytokines,[4],did not cause a significant shift in IC50
same,apoptotic cell death of MM cells,[5],increased apoptotic cell death
same,Mcl-1 protein level,[6],decrease
same,"expression level of pAKT, AKT, pCREB/pATF1, CREB and Mcl-1 proteins",[6],decreased
same,caspase-8 and PARP cleavage,[6]; 70 nM,cleavage of caspase-8 and PARP proteins
same,CREB expression,[7],decreased CREB expression
same,G2/M phase arrest,[8]; as early as 3 h of treatment,pronounced G2/M phase arrest
same,subG0/G1 phase peak,[8]; nuclear PI DNA staining,increase of subG0/G1 phase peak
same,cell proliferation,[9],decreased cell proliferation
same,overall survival of treated mice,[10],increased significantly the overall survival
same,apoptosis in the tumors (TUNEL),[10]; excised tumors,increased apoptosis
same,tumor growth compared to control mice,"[10]; P<0.05 on day 7, P<0.00005 at end of experiment",significantly inhibited tumor growth
